# From the supplement of paper PMC4371806
# Over roughly 2,300 compounds, “plate-normalized OD600 growth (mean of duplicates)” has its median near 0.29; the lowest 2% begin near 0.22. The list shows a part of the results.
# Tested on: Escherichia coli BW25113
# Experiment: plate-normalized OD600 growth (mean of duplicates) (OD600 (normalized)); higher = more growth (less inhibition)
# Settings: 10 µM
# Procedure: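 E. coli BW25113 in LB (100 µl, 96-well, no shaking) was exposed to 10 µM of each compound from a ~30,000-member library and grown at 37°C for 24 h or 15°C for 48 h, in duplicate. Growth was read as OD600 and the duplicate ODs were normalized across screening plates to correct plate-to-plate variation. Hits were >3σ below the mean OD600 at 15°C and <2σ below the mean at 37°C.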
smiles,measurement,setting,value
O=C(NC(=S)Nc1ccc(N2CCCCC2)cc1)c1cc2ccccc2o1,plate-normalized OD600 growth,"temperature: 15°C, 48 h",0.248
same,plate-normalized OD600 growth,"temperature: 37°C, 24 h",0.616
CCCCNS(=O)(=O)c1cnn(-c2ccccc2)c1Cl,plate-normalized OD600 growth,"temperature: 15°C, 48 h",0.233
same,plate-normalized OD600 growth,"temperature: 37°C, 24 h",0.607
O=[N+]([O-])c1ccc(Nc2nc(N/N=C/c3ccc(Cl)cc3)nc(N3CCCC3)n2)cc1,plate-normalized OD600 growth,"temperature: 15°C, 48 h",0.251
same,plate-normalized OD600 growth,"temperature: 37°C, 24 h",0.589
COc1cc(C2Sc3ccccc3NC3=C2C(=O)OC3)cc(OC)c1OC (centres undefined),plate-normalized OD600 growth,"temperature: 15°C, 48 h",0.247
same,plate-normalized OD600 growth,"temperature: 37°C, 24 h",0.611
COc1cc(C=NCc2ccco2)ccc1O,plate-normalized OD600 growth,"temperature: 15°C, 48 h",0.242
same,plate-normalized OD600 growth,"temperature: 37°C, 24 h",0.622
O=C1C2C(c3ccc(Cl)cc3)OC3(C(=O)c4ccccc4C3=O)C2C(=O)N1CCc1ccccc1 (centres undefined),plate-normalized OD600 growth,"temperature: 15°C, 48 h",0.27
same,plate-normalized OD600 growth,"temperature: 37°C, 24 h",0.628
c1ccc(-c2cc3c(nn2)CCc2nonc2-3)cc1,plate-normalized OD600 growth,"temperature: 15°C, 48 h",0.27
same,plate-normalized OD600 growth,"temperature: 37°C, 24 h",0.648
CC(=O)Nc1cc2ccccc2oc1=O,plate-normalized OD600 growth,"temperature: 15°C, 48 h",0.249
same,plate-normalized OD600 growth,"temperature: 37°C, 24 h",0.601
COC(=O)C1=C(C)NC2=C(C(=O)CC(c3ccc(OC)cc3)C2)C1c1cccc2ccccc12 (centres undefined),plate-normalized OD600 growth,"temperature: 15°C, 48 h",0.245
same,plate-normalized OD600 growth,"temperature: 37°C, 24 h",0.611
Cc1nn(C)c(C)c1[N+](=O)[O-],plate-normalized OD600 growth,"temperature: 15°C, 48 h",0.259
same,plate-normalized OD600 growth,"temperature: 37°C, 24 h",0.621
CCC(=O)NNc1cc(N2CCCC2)nc(N2CCCC2)n1,plate-normalized OD600 growth,"temperature: 15°C, 48 h",0.234
same,plate-normalized OD600 growth,"temperature: 37°C, 24 h",0.622
CCOC(=O)c1cc(C#N)c(C(C#N)c2nc3ccccc3s2)nc1N (centres undefined),plate-normalized OD600 growth,"temperature: 15°C, 48 h",0.249
same,plate-normalized OD600 growth,"temperature: 37°C, 24 h",0.608
CCOc1cccc(=O)c2c(C)n(-c3ccc4c(c3)OCO4)c(C)c12,plate-normalized OD600 growth,"temperature: 15°C, 48 h",0.23
same,plate-normalized OD600 growth,"temperature: 37°C, 24 h",0.645
Cc1ccc(N=Cc2ccc(SCC(=O)Nc3ccccc3)o2)cc1,plate-normalized OD600 growth,"temperature: 15°C, 48 h",0.234
same,plate-normalized OD600 growth,"temperature: 37°C, 24 h",0.619
O=C(Nc1ccncc1)C1COc2ccccc2O1 (centres undefined),plate-normalized OD600 growth,"temperature: 15°C, 48 h",0.251
same,plate-normalized OD600 growth,"temperature: 37°C, 24 h",0.601
CCNc1nc(NCC)n2c(SCC(=O)N(c3ccccc3)c3ccccc3)nnc2n1,plate-normalized OD600 growth,"temperature: 15°C, 48 h",0.241
same,plate-normalized OD600 growth,"temperature: 37°C, 24 h",0.631
COc1cc(C2C(C(=O)Nc3ccccc3)=C(C)Nc3nc4ccccc4n32)c([N+](=O)[O-])cc1OC (centres undefined),plate-normalized OD600 growth,"temperature: 15°C, 48 h",0.239
same,plate-normalized OD600 growth,"temperature: 37°C, 24 h",0.614
CCCCCCCCc1nnc(N)s1,plate-normalized OD600 growth,"temperature: 15°C, 48 h",0.252
same,plate-normalized OD600 growth,"temperature: 37°C, 24 h",0.628
O=C(CC1(O)C(=O)C=C(c2ccccc2)N1N=C(c1ccccc1)c1ccccc1)c1ccccc1 (centres undefined),plate-normalized OD600 growth,"temperature: 15°C, 48 h",0.242
same,plate-normalized OD600 growth,"temperature: 37°C, 24 h",0.588
NC(=O)c1cnc(NCCc2ccc(O)c(Cl)c2)nc1NCc1ccccc1,plate-normalized OD600 growth,"temperature: 15°C, 48 h",0.26
same,plate-normalized OD600 growth,"temperature: 37°C, 24 h",0.622
c1ccc(N2CCN(Cc3cn4ccccc4n3)CC2)nc1,plate-normalized OD600 growth,"temperature: 15°C, 48 h",0.263
same,plate-normalized OD600 growth,"temperature: 37°C, 24 h",0.632
Cc1nc2ccccc2nc1N=C(N)NC(=O)c1ccccc1,plate-normalized OD600 growth,"temperature: 15°C, 48 h",0.232
same,plate-normalized OD600 growth,"temperature: 37°C, 24 h",0.629
CC/C(=N\Nc1nc(-c2ccc(I)cc2)cs1)c1ccc(Cl)cc1,plate-normalized OD600 growth,"temperature: 15°C, 48 h",0.252
same,plate-normalized OD600 growth,"temperature: 37°C, 24 h",0.634
O=C(COc1nsnc1N1CCOCC1)Nc1cccc(F)c1,plate-normalized OD600 growth,"temperature: 15°C, 48 h",0.231
same,plate-normalized OD600 growth,"temperature: 37°C, 24 h",0.615
CC1CN=C(NC2CCCCC2)S1 (centres undefined),plate-normalized OD600 growth,"temperature: 15°C, 48 h",0.249
same,plate-normalized OD600 growth,"temperature: 37°C, 24 h",0.615
O=C(c1cccc([N+](=O)[O-])c1)c1cc2cc(Br)cc(Br)c2o1,plate-normalized OD600 growth,"temperature: 15°C, 48 h",0.298
same,plate-normalized OD600 growth,"temperature: 37°C, 24 h",0.626
Clc1nc(Nc2nc(-c3ccccc3)cs2)nc(Oc2ccccc2)n1,plate-normalized OD600 growth,"temperature: 15°C, 48 h",0.248
same,plate-normalized OD600 growth,"temperature: 37°C, 24 h",0.613
O=C(O)C1CC(=O)N(Cc2ccccc2)C(=Nc2ccc(F)cc2)S1 (centres undefined),plate-normalized OD600 growth,"temperature: 15°C, 48 h",0.221
same,plate-normalized OD600 growth,"temperature: 37°C, 24 h",0.601
CC1COCCN1c1cc(N2CCCCC2C(F)(F)F)[nH]c(=O)c1 (centres undefined),plate-normalized OD600 growth,"temperature: 15°C, 48 h",0.265
same,plate-normalized OD600 growth,"temperature: 37°C, 24 h",0.635
C/C(=N\NC(=O)CNC(=O)C(c1ccccc1)c1ccccc1)c1ccc2ccccc2c1,plate-normalized OD600 growth,"temperature: 15°C, 48 h",0.244
same,plate-normalized OD600 growth,"temperature: 37°C, 24 h",0.633
COC(=O)c1sc(-c2cccs2)cc1NC(=O)/C=C/C(=O)O,plate-normalized OD600 growth,"temperature: 15°C, 48 h",0.242
same,plate-normalized OD600 growth,"temperature: 37°C, 24 h",0.632
CN(C(=O)CCN1C(=O)C(C)(C)Nc2ccccc21)c1ccccc1,plate-normalized OD600 growth,"temperature: 15°C, 48 h",0.26
same,plate-normalized OD600 growth,"temperature: 37°C, 24 h",0.611
Cc1cccc(C)c1NC(=O)C(C)Oc1ccc(Cl)cc1Cl (centres undefined),plate-normalized OD600 growth,"temperature: 15°C, 48 h",0.255
same,plate-normalized OD600 growth,"temperature: 37°C, 24 h",0.608
O=C1CCNc2ccc(-c3ccccc3)cc21,plate-normalized OD600 growth,"temperature: 15°C, 48 h",0.244
same,plate-normalized OD600 growth,"temperature: 37°C, 24 h",0.637
CCOc1ccc(S(=O)(=O)NCCc2c(C)[nH]c3c(C)cccc23)c2ccccc12,plate-normalized OD600 growth,"temperature: 15°C, 48 h",0.251
same,plate-normalized OD600 growth,"temperature: 37°C, 24 h",0.62
CSc1nc2ccc(NC(=O)c3c(-c4ccccc4)noc3C)cc2s1,plate-normalized OD600 growth,"temperature: 15°C, 48 h",0.262
same,plate-normalized OD600 growth,"temperature: 37°C, 24 h",0.611
Oc1ccc(N=Nc2n[nH]c(-c3ccccc3)n2)cc1,plate-normalized OD600 growth,"temperature: 15°C, 48 h",0.25
same,plate-normalized OD600 growth,"temperature: 37°C, 24 h",0.625
CC(=O)Nc1c2c3c(cccc3n(C)c1=O)C(=O)c1ccccc1-2,plate-normalized OD600 growth,"temperature: 15°C, 48 h",0.229
same,plate-normalized OD600 growth,"temperature: 37°C, 24 h",0.632
CCCCCCCNC1CC(=O)N(c2ccc(Br)cc2)C1=O (centres undefined),plate-normalized OD600 growth,"temperature: 15°C, 48 h",0.243
same,plate-normalized OD600 growth,"temperature: 37°C, 24 h",0.629
CCOc1ccc(C(CC(=O)O)NC(=O)c2c(-c3ccccc3)noc2C)cc1 (centres undefined),plate-normalized OD600 growth,"temperature: 15°C, 48 h",0.243
same,plate-normalized OD600 growth,"temperature: 37°C, 24 h",0.616
O=C(c1ccccc1Br)N1CCN(c2ccc([N+](=O)[O-])c(N3CCOCC3)c2)CC1,plate-normalized OD600 growth,"temperature: 15°C, 48 h",0.246
same,plate-normalized OD600 growth,"temperature: 37°C, 24 h",0.611
O=C(Nc1ccccc1)Nn1c(-c2ccccc2)nc2ccc(I)cc2c1=O,plate-normalized OD600 growth,"temperature: 15°C, 48 h",0.253
same,plate-normalized OD600 growth,"temperature: 37°C, 24 h",0.614
CN(C)/C=C1\C(=O)c2ccccc2N(C)S1(=O)=O,plate-normalized OD600 growth,"temperature: 15°C, 48 h",0.251
same,plate-normalized OD600 growth,"temperature: 37°C, 24 h",0.643
O=S(=O)(c1ccc(Cl)cc1)N1CCN(c2ccnc3cc(Cl)ccc23)CC1,plate-normalized OD600 growth,"temperature: 15°C, 48 h",0.269
same,plate-normalized OD600 growth,"temperature: 37°C, 24 h",0.636
NNC(=O)CSc1c(-c2cccs2)[nH]c2ccccc12,plate-normalized OD600 growth,"temperature: 15°C, 48 h",0.23
same,plate-normalized OD600 growth,"temperature: 37°C, 24 h",0.617
COc1ccc(-c2cc(-c3ccc(Cl)c(Cl)c3)nc(N)c2C#N)cc1OC,plate-normalized OD600 growth,"temperature: 15°C, 48 h",0.237
same,plate-normalized OD600 growth,"temperature: 37°C, 24 h",0.611
N#CC(C#N)=CNc1cc(C(F)(F)F)ccc1N1CCCCC1,plate-normalized OD600 growth,"temperature: 15°C, 48 h",0.247
same,plate-normalized OD600 growth,"temperature: 37°C, 24 h",0.626

# Quoted from the results shown (4 entries):
smiles,measurement,setting,value
CSc1nc2ccc(NC(=O)c3c(-c4ccccc4)noc3C)cc2s1,plate-normalized OD600 growth,"temperature: 37°C, 24 h",0.611
Oc1ccc(N=Nc2n[nH]c(-c3ccccc3)n2)cc1,plate-normalized OD600 growth,"temperature: 15°C, 48 h",0.25
same,plate-normalized OD600 growth,"temperature: 37°C, 24 h",0.625
CC(=O)Nc1c2c3c(cccc3n(C)c1=O)C(=O)c1ccccc1-2,plate-normalized OD600 growth,"temperature: 15°C, 48 h",0.229
